Test results published in patent US5441563A, “Highly insoluble azole embossing inhibitor and the use thereof” (Armstrong World Industries, Inc., priority 1994, dated 1995).

What was measured:
[1] = Ghosting (in-roll migration of inhibitor), accelerated bench top test (Table II); parameters: key: None; SL: Slight; Severe (after 3 days); settings: after 3 days; 120 °F, 1.4 psi
[2] = as above; parameters: key: 1: Excellent; 2: Very Good; 3: Good; 4: Fair; 5: Poor; None; settings: after 3 days; 120 °F, 1.4 psi
[3] = Embossing definition over time; settings: printed sheets from the ghosting test
[4] = Depth of chemical embossing of printed foamable plastisol (Table I); settings: 9 mil plastisol, 201 °C, 1.3 min
[5] = cationic ink from cationic dispersion (inks of Examples 5, 9, 11; 11.54% TTA-P, 12.03% BTA-P, 12.10% HTTA-P)

For “1Bis(2-ethylhexyl)aminomethyltolyltriazole [TTA-EH, reference compound]”, the Ghosting [1] was “S”.

With “1Bis(hydroxyethyl)aminomethyltotyltriazole [TTA-HE, reference compound]” the Ghosting [1] was “S”.

For `c1ccc2[nH]cnc2c1` [BI, Benzimidazole], the Ghosting [1] was “S”.

In the case of `c1ccc2c(c1)ncn2CN1CCN(Cn2cnc3ccccc32)CC1` [BI-P, N,N'-Bis(Benzimidazol-1-yl Methyl) Piperazine], the Ghosting [2] is reported as “N”.

With `c1ccc2[nH]nnc2c1` [BTA, Benzotriazole, reference compound] the “Embossing definition over time” value [3] was “poor embossing definition over time” and the Ghosting [1] was “S”.

With `O=C(O)c1ccc(S(=O)(=O)NCn2nnc3ccccc32)cc1` [BTA-4CBSA, N-(Benzotriazol-1-yl Methyl)-4'-Carboxybenzene Sulfonamide] the Ghosting [1] was “SL”.

In the case of `c1ccc2c(c1)nnn2CNCn1nnc2ccccc21` [BTA-A, bis(benzotriazol-1-ylmethyl) amine], the Ghosting [1] is reported as “S”.

With `O=S(=O)(NCn1nnc2ccccc21)c1cccc(S(=O)(=O)NCn2nnc3ccccc32)c1` [BTA-BDSA, 1(1',3'-benzenedisulfonamido)methyl benzotriazole] the Ghosting [2] was “N”.

For `O=S(=O)(NCn1nnc2ccccc21)c1ccccc1` [BTA-BSA, 1-(1'-benzenesulfonamido) methyl benzotriazole], the Ghosting [1] was “S”.

In the case of `CN(Cn1nnc2ccccc21)C(=O)N(C)Cn1nnc2ccccc21` [BTA-DMU, 1,3-Bis(benzotriazol-1'-ylmethyl) N,N'-dimethyl urea], the Ghosting [1] is reported as “SL”.

In the case of `O=C(O)CN(Cn1nnc2ccccc21)Cn1nnc2ccccc21` [BTA-G, N,N-bis(benzotriazol-1-ylmethyl) glycine], the Ghosting [1] is reported as “S”.

For `O=C(NN(Cn1nnc2ccccc21)Cn1nnc2ccccc21)c1ccccc1` [BTA-HYR, 1-Bis(Benzotriazol-1'-yl Methyl)-2-Benzoyl Hydrazide], the Ghosting [2] was “N”.

For `O=S(=O)(NCn1nnc2ccccc21)c1cccc2c(S(=O)(=O)NCn3nnc4ccccc43)cccc12` [BTA-NDSA, 1(1',5'-naphthalenedisulfonamido) methyl benzotriazole], the Ghosting [2] was “N”.

For `ON(Cn1nnc2ccccc21)Cn1nnc2ccccc21` [BTA-NOH, N,N-bis (benzotriazol-1-yl methyl) hydroxylamine], the Ghosting [1] was “S”.

With `c1ccc2c(c1)nnn2CN1CCN(Cn2nnc3ccccc32)CC1` [BTA-P, N,N'-bis(benzotriazol-1-ylmethyl) piperazine] the “Chemical Embossing Depth” value [4, 5] was 7.5 mils and the Ghosting [2] was “N”.

With `S=C(NCn1nnc2ccccc21)NCn1nnc2ccccc21` [BTA-TU, 1,3-bis(benzotriazol-1-ylmethyl) thiourea] the Ghosting [2] was “N”.

In the case of `O=C(NCn1nnc2ccccc21)NCn1nnc2ccccc21` [BTA-U, 1,3-bis(benzotriazol-1'-ylmethyl) urea], the Ghosting [2] is reported as “N”.

For “N,N'-Bis(Methylcyclohexyltriazol-1-yl Methyl) Piperazine [HTTA-P]”, the “Chemical Embossing Depth” value [4, 5] was 8.5 mils and the Ghosting [2] was “N”.

In the case of “N,N'-bis(tolyltriazol-1-yl methyl) piperazine [TTA-P]”, the “Chemical Embossing Depth” value ([4]; anionic ink from anionic dispersion (Example 7), 11.24% TTA-P) is reported as 9.1 mils, the “Chemical Embossing Depth” value ([4]; anionic ink, direct addition (Example 13), 12.93% TTA-P) is reported as 10.8 mils and the “Chemical Embossing Depth” value [4, 5] is reported as 10.0 mils. For the same molecule, the “Chemical Embossing Depth” value ([4]; cationic ink, direct addition (Example 12), 12.93% TTA-P) was 10.6 mils and the Ghosting [2] was “N”.

With Tolyltriazole [TTA, reference compound] the “Embossing definition over time” value [3] was “poor embossing definition over time” and the Ghosting [1] was “S”.
